Measurements published in PMC3254608, “Inscuteable Regulates the Pins-Mud Spindle Orientation Pathway” (PLoS ONE, 2012).
Results are given in words; binding and its absence hold for the method and conditions named. For part of these data: A result given as binding can be weak or reduced; the word gives no strength. For part of these data: Tags and fused reporters may be left off the sequences shown. For part of these data: Binding seen in cells or lysates may run through a third protein. One block for each molecule: values may come before it.

Sequences of proteins named here, by UniProt entry; tags and fusion partners are left off. A change or cut given only in a name is not applied to a line headed by its entry.
UniProt P31007: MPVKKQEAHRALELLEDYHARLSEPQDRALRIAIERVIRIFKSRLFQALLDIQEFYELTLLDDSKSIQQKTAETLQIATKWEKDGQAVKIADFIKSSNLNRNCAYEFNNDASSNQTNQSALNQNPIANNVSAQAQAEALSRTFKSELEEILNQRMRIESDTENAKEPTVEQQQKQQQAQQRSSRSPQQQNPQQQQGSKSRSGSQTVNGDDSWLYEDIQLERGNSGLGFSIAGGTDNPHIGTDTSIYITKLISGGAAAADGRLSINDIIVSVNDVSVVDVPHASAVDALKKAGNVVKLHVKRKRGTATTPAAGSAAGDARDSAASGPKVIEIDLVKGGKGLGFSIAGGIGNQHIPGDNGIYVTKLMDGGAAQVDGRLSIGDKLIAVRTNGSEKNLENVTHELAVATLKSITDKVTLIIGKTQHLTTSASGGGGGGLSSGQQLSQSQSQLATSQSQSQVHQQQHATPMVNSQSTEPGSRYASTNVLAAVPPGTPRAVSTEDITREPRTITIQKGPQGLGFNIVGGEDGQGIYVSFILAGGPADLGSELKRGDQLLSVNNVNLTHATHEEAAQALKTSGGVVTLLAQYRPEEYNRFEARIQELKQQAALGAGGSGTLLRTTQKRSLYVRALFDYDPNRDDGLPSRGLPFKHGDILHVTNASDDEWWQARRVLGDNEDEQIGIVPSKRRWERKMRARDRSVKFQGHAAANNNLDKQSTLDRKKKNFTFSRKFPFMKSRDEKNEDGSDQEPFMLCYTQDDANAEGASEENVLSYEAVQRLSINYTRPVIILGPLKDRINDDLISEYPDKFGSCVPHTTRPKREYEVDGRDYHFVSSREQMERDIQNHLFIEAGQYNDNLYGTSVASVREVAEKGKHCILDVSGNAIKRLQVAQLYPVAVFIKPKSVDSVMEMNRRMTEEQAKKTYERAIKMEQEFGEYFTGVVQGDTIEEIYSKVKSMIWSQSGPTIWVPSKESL

What was measured:
[1] = biological target: T1, GST-fusion of the Pins TPR region (residues 42-398) (Drosophila) (UniProt Q9VB22); assay: pull-down; competition: GST-Pins TPRs on glutathione agarose, constant amount of Mud fragment, increasing MBP-Insc; 10 mM Hepes/100 mM NaCl/1 mM DTT, room temperature, 15 min; both purified
T1 sequence: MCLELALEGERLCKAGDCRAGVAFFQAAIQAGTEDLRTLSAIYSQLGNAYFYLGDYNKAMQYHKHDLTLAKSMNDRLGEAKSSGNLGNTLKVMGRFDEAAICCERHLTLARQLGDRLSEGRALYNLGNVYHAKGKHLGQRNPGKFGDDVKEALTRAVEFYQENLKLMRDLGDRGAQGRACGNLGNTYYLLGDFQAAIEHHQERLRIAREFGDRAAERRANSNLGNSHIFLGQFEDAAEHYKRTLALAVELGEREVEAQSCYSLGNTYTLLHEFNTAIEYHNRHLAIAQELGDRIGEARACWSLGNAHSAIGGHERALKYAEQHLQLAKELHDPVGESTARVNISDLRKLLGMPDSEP

[2] = biological target: T2, Inscuteable (Insc), endogenous (Drosophila (endogenous in L3 larval brains)) (UniProt Q24367); assay: co-IP; endogenous proteins from wild-type L3 larval brain extracts; antibodies on protein G sepharose; 50 mM HEPES pH 7.5/150 mM NaCl/1 mM DTT/0.1% Triton X-100; western blot
T2 sequence: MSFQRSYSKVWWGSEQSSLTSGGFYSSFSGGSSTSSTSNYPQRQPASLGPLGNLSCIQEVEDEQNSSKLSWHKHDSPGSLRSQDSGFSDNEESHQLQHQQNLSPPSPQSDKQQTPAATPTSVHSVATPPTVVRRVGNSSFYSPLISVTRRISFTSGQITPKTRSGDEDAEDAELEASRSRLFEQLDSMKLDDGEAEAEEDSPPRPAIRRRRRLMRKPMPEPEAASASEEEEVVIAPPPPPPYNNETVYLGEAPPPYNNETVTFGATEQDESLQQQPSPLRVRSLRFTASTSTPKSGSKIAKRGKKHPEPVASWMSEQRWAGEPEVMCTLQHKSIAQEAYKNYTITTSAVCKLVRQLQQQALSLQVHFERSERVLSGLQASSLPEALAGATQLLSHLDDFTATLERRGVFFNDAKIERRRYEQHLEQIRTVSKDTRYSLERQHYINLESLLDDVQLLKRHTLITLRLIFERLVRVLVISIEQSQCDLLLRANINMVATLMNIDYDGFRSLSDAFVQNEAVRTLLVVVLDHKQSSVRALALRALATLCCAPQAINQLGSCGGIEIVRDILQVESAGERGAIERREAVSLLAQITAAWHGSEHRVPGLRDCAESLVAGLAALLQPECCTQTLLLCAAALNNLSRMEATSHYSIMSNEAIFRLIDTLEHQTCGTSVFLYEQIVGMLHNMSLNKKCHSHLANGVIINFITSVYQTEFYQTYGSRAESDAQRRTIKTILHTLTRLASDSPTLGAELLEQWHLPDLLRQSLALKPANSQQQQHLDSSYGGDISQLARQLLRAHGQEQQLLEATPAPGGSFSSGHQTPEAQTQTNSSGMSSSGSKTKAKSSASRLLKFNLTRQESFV

[3] = biological target: T3, Partner of Inscuteable (Pins), endogenous (Drosophila (endogenous in L3 larval brains)) (UniProt Q9VB22); assay: as above
T3 sequence: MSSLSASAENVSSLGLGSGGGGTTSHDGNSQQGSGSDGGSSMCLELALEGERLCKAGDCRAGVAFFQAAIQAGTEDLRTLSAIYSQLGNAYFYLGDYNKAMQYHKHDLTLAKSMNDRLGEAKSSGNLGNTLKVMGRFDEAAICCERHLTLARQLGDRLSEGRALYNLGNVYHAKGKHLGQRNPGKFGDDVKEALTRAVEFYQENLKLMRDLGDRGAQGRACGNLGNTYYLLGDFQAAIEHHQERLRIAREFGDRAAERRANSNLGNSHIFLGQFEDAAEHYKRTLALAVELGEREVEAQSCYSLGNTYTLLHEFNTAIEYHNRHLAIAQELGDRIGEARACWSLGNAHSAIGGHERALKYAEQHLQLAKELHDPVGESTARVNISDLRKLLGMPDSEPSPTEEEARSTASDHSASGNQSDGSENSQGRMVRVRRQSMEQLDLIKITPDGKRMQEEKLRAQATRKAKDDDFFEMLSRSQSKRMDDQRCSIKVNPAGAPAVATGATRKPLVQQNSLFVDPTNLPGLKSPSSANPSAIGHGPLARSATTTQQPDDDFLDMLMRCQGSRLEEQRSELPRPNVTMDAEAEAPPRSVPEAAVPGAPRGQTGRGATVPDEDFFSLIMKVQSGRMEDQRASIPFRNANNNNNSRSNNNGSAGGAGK

[4] = biological target: GST-Mud (residues 1825-2016) (Drosophila); assay: pull-down; competition: GST-Mud on glutathione agarose, constant 2 uM Pins TPR, increasing MBP-Insc; 10 mM Hepes/100 mM NaCl/1 mM DTT, room temperature, 15 min; both purified
[5] = biological target: Dlg GK domain (Drosophila) (UniProt P31007); assay: pull-down; GST pull-down with Pins 1-466 (alone or pre-formed with MBP-Insc) treated in vitro with Aurora-A (30 min, room temperature), then added to the pull-down resin; Dlg GK domain; both purified
[6] = biological target: Mushroom body defect (Mud), endogenous (Drosophila (endogenous in L3 larval brains)); assay: co-IP; endogenous proteins from wild-type L3 larval brain extracts; antibodies on protein G sepharose; 50 mM HEPES pH 7.5/150 mM NaCl/1 mM DTT/0.1% Triton X-100; western blot

Molecule: purified Mud fragment containing the minimal TPR binding domain (residues 1825-2016) (Drosophila) (domain or fragment)
- binding [1]: binds

Molecule: Mushroom body defect (Mud), endogenous
- binding [2]: no binding
- binding [3]: binds

B3: Inscuteable (Insc), endogenous (protein, UniProt Q24367 1-859)
chain: T2 sequence
- binding [6]: no binding

The next lines start with the values.

- binding [4]: binds
B1: Pins TPR (residues 42-398), soluble (domain or fragment, UniProt Q9VB22 42-398)
chain: T1 sequence

- binding [5]: binds
B2: in vitro Aurora-A phosphorylated Pins 1-466 (TPR+LINKER) (domain or fragment, UniProt Q9VB22 1-466)
chain: MSSLSASAENVSSLGLGSGGGGTTSHDGNSQQGSGSDGGSSMCLELALEGERLCKAGDCRAGVAFFQAAIQAGTEDLRTLSAIYSQLGNAYFYLGDYNKAMQYHKHDLTLAKSMNDRLGEAKSSGNLGNTLKVMGRFDEAAICCERHLTLARQLGDRLSEGRALYNLGNVYHAKGKHLGQRNPGKFGDDVKEALTRAVEFYQENLKLMRDLGDRGAQGRACGNLGNTYYLLGDFQAAIEHHQERLRIAREFGDRAAERRANSNLGNSHIFLGQFEDAAEHYKRTLALAVELGEREVEAQSCYSLGNTYTLLHEFNTAIEYHNRHLAIAQELGDRIGEARACWSLGNAHSAIGGHERALKYAEQHLQLAKELHDPVGESTARVNISDLRKLLGMPDSEPSPTEEEARSTASDHSASGNQSDGSENSQGRMVRVRRQSMEQLDLIKITPDGKRMQEEKLRAQATRKAK
modifications: phosphorylated by Aurora-A in the Linker domain (residue not given)
